# Results published in patent US10076572B2, “Photodynamic therapy for treating Clostridium difficile infection using chitosan and tetracycline” (priority 2015, dated 2018).
# At least one compound was matched to its structure with a doubt left.
# Experiments:
# C. difficile [1] = assay: Membrane integrity after PDT by confocal microscopy (Live/Dead BacLight, SYTO9/propidium iodide); type: cell-based, Clostridium difficile (KCTC 5009); details: UVA plus TC at 500 μg/ml
# C. difficile [2] = assay: Inhibitory (bactericidal) activity of tetracycline itself, colony count without light; type: cell-based, Clostridium difficile (KCTC 5009); details: tetracycline as high as 1 mg/mL, incubation 30 min, no light
smiles,measurement,setting,value
"CN(C)[C@@H]1C(O)=C(C(N)=O)C(=O)[C@@]2(O)C(O)=C3C(=O)c4c(O)cccc4[C@@](C)(O)[C@H]3C[C@@H]12 [TC, tetracycline]","fluorescence observed (green = intact membrane, red = compromised membrane)",C. difficile [1],green fluorescence was still observed with red color
same,"bactericidal activity of tetracycline itself (effect on cells, colony count)",C. difficile [2],not affected
